Patent publication US20230303544A1, “LMO2 PROTEIN INHIBITORS” (UNIVERSITY OF OXFORD, priority 2020, published 2023)
At least one compound was matched to its structure with a doubt left.

Columns and labels:
LMO2-ΔLID = target: T1, LMO2-ΔLID (Homo sapiens, UniProt P25791); test: WaterLOGSY NMR binding to LMO2-ΔLID; conditions: RT
T1 construct: UniProt P25791; residues 26-156; hexa-histidine tag (N, cleaved yes); SUMO (N, cleaved yes); made in house; host or cells: E. coli Lemo21(DE3)
T1 sequence (P25791 with tags, fused parts or gaps): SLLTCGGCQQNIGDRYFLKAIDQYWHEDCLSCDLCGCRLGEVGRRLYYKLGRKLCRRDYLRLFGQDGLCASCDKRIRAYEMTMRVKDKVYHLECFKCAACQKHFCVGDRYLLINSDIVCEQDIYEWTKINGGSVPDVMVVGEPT
Method: (§1) WaterLOGSY NMR method was used to measure LMO2 ligand interaction (Bataille et al., 2020). WaterLOGSY experiments were conducted at a ^1H frequency of 600 MHz using a Bruker Avance spectrometer equipped with a BBI probe. All experiments were conducted at RT. 3 mm diameter NMR tubes with a sample volume of 200 μL were used for all experiments. For LMO2-LID, solutions were buffered using a 10 mM NaPO4, 250 mM NaCl solution. For LMO2-ΔLID, solutions were buffered using a 10 mM NaPO4, 50 mM NaCl solution. The sample preparation for measuring ligand binding with LMO2-LID is exemplified as follows; the compound (10 μL of a 10 mM solution in DMSO-d6) was added to an Eppendorf tube before sequential addition of the appropriate buffer (90 μL), D2O (20 μL), and the protein (80 μL, 25 μM). The resulting solution was vortexed to mix and transferred to a 3 mm NMR tube prior to the NMR analysis. The sample preparation for measuring ligand binding with LMO2-ΔLID is exemplified as follows; the compound (10 μL of a 10 mM solution in DMSO-d6) was added to an Eppendorf tube before sequential addition of the appropriate buffer (162 μL), D2O (20 μL), and the protein (8 μL, 250 μM). The resulting solution was vortexed to mix and transferred to a 3 mm NMR tube prior to the NMR analysis. […]

LMO2-LID = target: T2, LMO2-LID (Homo sapiens, UniProt P25791); test: WaterLOGSY NMR binding to LMO2-LID; conditions: RT
T2 construct: made in house; host or cells: E. coli BL21(DE3)-Rosetta2 pLysS
T2 sequence (P25791 26-156 limits assumed): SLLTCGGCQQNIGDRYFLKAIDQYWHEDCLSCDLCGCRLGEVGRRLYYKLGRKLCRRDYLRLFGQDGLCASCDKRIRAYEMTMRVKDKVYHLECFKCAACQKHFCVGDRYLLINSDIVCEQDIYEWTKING
T2 sequence (Q86U70 336-375 partner limits assumed): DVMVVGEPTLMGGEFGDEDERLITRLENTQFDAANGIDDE
Method: as §1

N#Cc1cccc(CN2CCN(c3nc(C(=O)Nc4ccc(-n5cccc5)cc4)co3)C2=O)c1 [Abd-L10, N-(4-(1H-pyrrol-1-yl)phenyl)-2-(3-(3-cyanobenzyl)-2-oxoimidazolidin-1-yl)oxazole-4-carboxamide]
binding to LMO2-ΔLID by waterLOGSY NMR (LMO2-ΔLID): bind and showed binding and Direct binding
binding to LMO2-LID by waterLOGSY NMR (LMO2-LID): not
